“Also recorded” adds a separate entry of the source.
Test system: Htt-Q138 expressing primary neural cultures
Assay: In vitro validation of screen hits by confocal microscopy of primary cultures on glass coverslips
Format: cell-based, Drosophila
Settings: up to one week of continuous exposure
Excerpt: FIG. 4. In vitro validation of small molecule screen hits. Confocal microscopy images of primary cultures plated on glass coverslips and treated with either DMSO (A,B) or test compounds (C,D). […] HttQ15 is soluble and fills most neurite processes. […] (E) Quantification of altered Htt138Q distribution following Camptothecin treatment.
Microscopy: For high-content screening mature 7-day old cultures were imaged with an ImageXpress^MICRO robotic microscope (Molecular Devices, Sunnyvale, Calif.) using a 10× objective and FITC/Cy3 filter sets. Images were 1392×1040 pixels, or 897×670 micrometers. Laser-based autofocusing was used to locate plate bottoms, and then image-based focusing used to resolve fluorescently labeled neurons over a 48 μm range. The GFP and mRFP channels were imaged in the same focal plane, with exposure times of 850 and 400 ms respectively. Three sites were imaged per well for each treatment group, and the screen was done in duplicate. For confocal microscopy of primary cultures, neuroblasts were plated on poly-L-lysine coated chambered cover slips (LabTekII, 0.8 cm^2/well) at 18,300 cells/well in 50 μL volume. Small molecules were added to cultures 24 hours after plating, incubated for 7 days, and then imaged with a Leica TCS-SP2 confocal LSM microscope.

## CC[C@@]1(O)C(=O)OCc2c1cc1n(c2=O)Cc2cc3ccccc3nc2-1 [Camptothecin]
  Expression levels of Htt-Q138 / Htt-mRFP fluorescence: did not observe any decrease in Htt-mRFP fluorescence; also recorded: does not alter expression levels of Htt-Q138

Source: US20130303562A1, “CHEMICAL AND RNAI SUPPRESSORS OF NEUROTOXICITY IN HUNTINGTON'S DISEASE” (priority 2010, published 2013)
